PubChem BioAssay AID1259405 – NCATS – 2018
Screen: 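Silenced genes that increase secreted GFP made by CHO cells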 (primary screen). System: Chinese hamster CHO-K1 ovary cells with stable secreted eGFP expression. Knock-down reagent: single siRNA against mouse genes, 0.8 pmol siRNA per well (2 µl of 400 nM stock). Duration: 3 days. Measurement: 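Percent of the per-plate non-targeting control median for intracellular GFP per well by laser scanning cytometry and for cell viability by ATP luminescence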. Direction: GFP, % of control: higher = more GFP per well, higher productivity; viability (ATP), % of control: higher = more viable cells (more ATP). Active means: 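Called active when intracellular GFP, relative to negative control, is at or above 120%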.
Shown is a random part of about 50,000 deposited reagents. About 4,000 of all reagents (8%) were called active. 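Mouse siRNA library applied to hamster cells; one well for each siRNA.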 Reagent sequences are not shown.

Slco1a5 [SID363547724] scored GFP, % of control 133; viability (ATP), % of control 67.1; active.
For Slco1a5 [SID363558493] the deposit lists GFP, % of control 78.3; viability (ATP), % of control 84.5; inactive.
For Slco1a5 [SID363560251], the entry reads GFP, % of control 67.6; viability (ATP), % of control 91.6; inactive.
With knock-down of Cacybp [SID363541812] the results were GFP, % of control 70.1; viability (ATP), % of control 78.1; inactive.
Depletion of Cacybp [SID363553404] came out at: GFP, % of control 64.1; viability (ATP), % of control 62.1; inactive.
Knock-down of Cacybp [SID363566728] resulted in: GFP, % of control 61.4; viability (ATP), % of control 81.9; inactive.
After knock-down of Tmem184c [SID363547783], the record shows GFP, % of control 70.3; viability (ATP), % of control 85.2; inactive.
For Tmem184c [SID363558552], the values are GFP, % of control 89.6; viability (ATP), % of control 106; inactive.
Against Tmem184c [SID363560310] the deposit lists GFP, % of control 69.5; viability (ATP), % of control 90.6; inactive.
Chil5 [SID363545567] gave GFP, % of control 83.7; viability (ATP), % of control 63.1; inactive.
Silencing of Chil5 [SID363549080] resulted in: GFP, % of control 63.3; viability (ATP), % of control 72.7; inactive.
Against Chil5 [SID363562886], the entry reads GFP, % of control 78.1; viability (ATP), % of control 53.8; inactive.
Knock-down of Or51af1 [SID363544765] resulted in: GFP, % of control 89.9; viability (ATP), % of control 60; inactive.
After knock-down of Or51af1 [SID363551093], the record shows GFP, % of control 72.2; viability (ATP), % of control 91.1; inactive.
With knock-down of Or51af1 [SID363557642] the results were GFP, % of control 47; viability (ATP), % of control 44.4; inactive.
Against Trim9 [SID363541701] the deposit lists GFP, % of control 57.7; viability (ATP), % of control 49.6; inactive.
Depletion of Trim9 [SID363553293] gave: GFP, % of control 30.1; viability (ATP), % of control 56.9; inactive.
With knock-down of Trim9 [SID363566617], the screen gave GFP, % of control 88.9; viability (ATP), % of control 75.1; inactive.
After knock-down of Dhx36 [SID363569861], the record shows GFP, % of control 105; viability (ATP), % of control 84.3; inactive.
For Dhx36 [SID363576901], the values are GFP, % of control 46.8; viability (ATP), % of control 48.8; inactive.
For Dhx36 [SID363578309], the entry reads GFP, % of control 72; viability (ATP), % of control 62.4; inactive.
With knock-down of Cldn18 [SID363541743], the record shows GFP, % of control 58.4; viability (ATP), % of control 58.7; inactive.
For Cldn18 [SID363553335] the deposit lists GFP, % of control 97.1; viability (ATP), % of control 75.6; inactive.
Against Cldn18 [SID363566659] the deposit lists GFP, % of control 108; viability (ATP), % of control 28.5; inactive.
Lgals3 [SID363541293] showed GFP, % of control 38.7; viability (ATP), % of control 50.4; inactive.
After knock-down of Lgals3 [SID363555920], the screen gave GFP, % of control 63.9; viability (ATP), % of control 75.6; inactive.
After knock-down of Lgals3 [SID363566209] the results were GFP, % of control 93.4; viability (ATP), % of control 60.9; inactive.

Look-ups from the entries so far.
Trim9 [SID363541701], viability (ATP), % of control: 49.6
Under “GFP, % of control”, Dhx36 [SID363576901] shows 46.8
Value for Lgals3 [SID363566209] under “GFP, % of control”: 93.4
Entry of Cacybp [SID363541812] under “GFP, % of control”: 70.1
Result for Cldn18 [SID363541743] under “viability (ATP), % of control”: 58.7
Under “Outcome”, Lgals3 [SID363555920] shows inactive

Next results follow:
Silencing of Samd5 [SID363539778] gave: GFP, % of control 82.4; viability (ATP), % of control 114; inactive.
Knock-down of Samd5 [SID363561079] resulted in: GFP, % of control 51.2; viability (ATP), % of control 48.8; inactive.
Depletion of Samd5 [SID363565169] gave: GFP, % of control 54.1; viability (ATP), % of control 64; inactive.
With knock-down of Dph1 [SID363539597], the record shows GFP, % of control 105; viability (ATP), % of control 108; inactive.
Silencing of Dph1 [SID363560898] came out at: GFP, % of control 102; viability (ATP), % of control 112; inactive.
Against Dph1 [SID363564988] the deposit lists GFP, % of control 132; viability (ATP), % of control 77.2; active.
Slc5a3 [SID363574695] scored GFP, % of control 176; viability (ATP), % of control 101; active.
After knock-down of Slc5a3 [SID363575751], the record shows GFP, % of control 66.1; viability (ATP), % of control 56.9; inactive.
Knock-down of Slc5a3 [SID363580327] gave: GFP, % of control 103; viability (ATP), % of control 81.8; inactive.
Silencing of Ctag2 [SID363543639] gave: GFP, % of control 109; viability (ATP), % of control 38.3; inactive.
Knock-down of Ctag2 [SID363553132] gave: GFP, % of control 34.2; viability (ATP), % of control 60.2; inactive.
Silencing of Ctag2 [SID363558980] gave: GFP, % of control 64.3; viability (ATP), % of control 84.6; inactive.
With knock-down of Cirbp [SID363569471] the results were GFP, % of control 53.9; viability (ATP), % of control 53.2; inactive.
Against Cirbp [SID363577215], the values are GFP, % of control 70.5; viability (ATP), % of control 61.5; inactive.
With knock-down of Cirbp [SID363578623], the screen gave GFP, % of control 185; viability (ATP), % of control 132; active.
